Test results published in the supplement of paper PMC7238544.
± gives the standard deviation of the averaged measurements. Some of the results follow. The data scatter; read single values as rough.

What follows are compounds tested on hAMSC donor 1 (assay: transfection efficiency (EGFP+ cells / Hoechst count) fold change vs vehicle control (ratio); hAMSC are human adipose-derived mesenchymal stem cells given an EGFP-luciferase plasmid by lipofection; higher = enhanced transfection). Conditions: priming compound concentration 13 µM.
For O=C1NC(=O)C(c2ccccc2)(c2ccccc2)N1 [Dilantin], the transfection efficiency was 0.914 ± 0.1.
With CC(C)C[C@H](NC(=O)[C@@H](COC(C)(C)C)NC(=O)[C@H](Cc1ccc(O)cc1)NC(=O)[C@H](CO)NC(=O)[C@H](Cc1c[nH]c2ccccc12)NC(=O)[C@H](Cc1cnc[nH]1)NC(=O)[C@@H]1CCC(=O)N1)C(=O)N[C@@H](CCCNC(=N)N)C(=O)N1CCC[C@H]1C(=O)NNC(N)=O [Goserelin acetate] the transfection efficiency was 1.79 ± 0.56.
Compound O=C1CN(/N=C/c2ccc(-c3ccc([N+](=O)[O-])cc3)o2)C(=O)N1 [Dantrolene sodium] has a transfection efficiency of 1.07 ± 0.14.
For CCN(CC)CC(=O)Nc1c(C)cccc1C [Lidocaine], the transfection efficiency was 1.09 ± 0.26.
Work on C=CC[C@@H]1/C=C(\C)C[C@H](C)C[C@H](OC)[C@H]2O[C@@](O)(C(=O)C(=O)N3CCCC[C@H]3C(=O)O[C@H](/C(C)=C/[C@@H]3CC[C@@H](O)[C@H](OC)C3)[C@H](C)[C@@H](O)CC1=O)[C@H](C)C[C@@H]2OC [Tacrolimus] yielded a transfection efficiency of 0.792 ± 0.23.
CC[C@@H](CO)NCCN[C@@H](CC)CO [Ethambutol] gave a transfection efficiency of 1.22 ± 0.18.
Work on O=C(O)CCCc1ccccc1 [4-Phenylbutyric acid] yielded a transfection efficiency of 1.47 ± 0.43.
In the case of O=c1c(-c2ccccc2)c1-c1ccccc1 [Diphenylcyclopropenone], the transfection efficiency is reported as 2.28 ± 0.41.
Compound CC(C)(C(=O)c1cccnc1)c1cccnc1 [Metyrapone] has a transfection efficiency of 1.17 ± 0.3.
COc1c(N2CCNC(C)C2)c(F)cc2c(=O)c(C(=O)O)cn(C3CC3)c12 (stereo unspecified) [Gatifloxacin] was tested, and the transfection efficiency was 1.48 ± 0.38.
Compound Cc1cnc(C(=O)NCCc2ccc(S(=O)(=O)NC(=O)NC3CCCCC3)cc2)cn1 [Glipizide] has a transfection efficiency of 0.908 ± 0.47.
